A weaker result is weaker than the reference pair of the same experiment.
How the values were obtained:
Assay in all cases: EMSA
[1] = system: Ints3-555-976 K851E (human); details: significantly reduced vs WT, 20 mM Hepes pH 7.4, 100 mM NaCl, 1 mM MgCl2, 1 mg/ml BSA, 2 mM DTT, 5% glycerol, on ice 30 min, 7.5 nM probe, native 5% PAGE in 1X TBE, recombinant protein, residues 555-976, label: 5' 32P
[2] = system: Ints3-555-976 M780A/M781A (human); details: significantly reduced vs WT, 20 mM Hepes pH 7.4, 100 mM NaCl, 1 mM MgCl2, 1 mg/ml BSA, 2 mM DTT, 5% glycerol, on ice 30 min, 7.5 nM probe, native 5% PAGE in 1X TBE, recombinant protein, residues 555-976, label: 5' 32P
[3] = system: Ints3-555-976 R788E/K789E (human); details: reduced vs WT, 0-25 uM; 20 mM Hepes pH 7.4, 100 mM NaCl, 1 mM MgCl2, 1 mg/ml BSA, 2 mM DTT, 5% glycerol; on ice 30 min; 7.5 nM probe; native 5% PAGE in 1X TBE; recombinant protein; residues 555-976; label: 5' 32P
[4] = up to 200 uM, single-stranded DNA

Chains of the proteins cited; added tags and fusions are not shown. A line that says so, or that is headed by a name, gives the form on record, which may keep a tag or linker.
Ints3-555-976 M780A/M781A (human), one chain, as listed by the source M780A M781A: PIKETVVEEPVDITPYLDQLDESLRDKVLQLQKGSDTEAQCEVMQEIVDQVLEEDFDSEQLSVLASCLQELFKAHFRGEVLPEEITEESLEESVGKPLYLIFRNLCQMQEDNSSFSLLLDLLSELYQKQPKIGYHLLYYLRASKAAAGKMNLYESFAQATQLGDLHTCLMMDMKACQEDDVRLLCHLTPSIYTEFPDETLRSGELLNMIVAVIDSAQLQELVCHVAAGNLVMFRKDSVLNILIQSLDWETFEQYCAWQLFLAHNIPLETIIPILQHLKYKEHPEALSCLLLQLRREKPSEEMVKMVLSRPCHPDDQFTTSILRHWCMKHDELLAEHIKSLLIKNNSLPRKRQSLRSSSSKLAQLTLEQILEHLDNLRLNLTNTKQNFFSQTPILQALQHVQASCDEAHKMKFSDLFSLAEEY
Ints3-555-976 K851E (human), one chain, as listed by the source K851E: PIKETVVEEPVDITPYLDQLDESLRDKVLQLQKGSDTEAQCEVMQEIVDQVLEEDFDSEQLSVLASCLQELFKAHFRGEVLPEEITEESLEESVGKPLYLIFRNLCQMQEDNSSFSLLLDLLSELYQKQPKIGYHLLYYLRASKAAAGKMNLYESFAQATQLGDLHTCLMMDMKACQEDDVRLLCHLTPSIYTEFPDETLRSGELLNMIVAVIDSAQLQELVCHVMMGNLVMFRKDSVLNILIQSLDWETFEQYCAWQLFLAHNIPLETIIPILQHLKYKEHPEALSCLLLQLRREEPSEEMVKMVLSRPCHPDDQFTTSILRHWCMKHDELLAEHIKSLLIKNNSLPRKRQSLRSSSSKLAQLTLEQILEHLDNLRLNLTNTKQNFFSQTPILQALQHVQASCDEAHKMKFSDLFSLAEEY
Ints3-555-976 R788E/K789E (human), one chain, as listed by the source R788E K789E: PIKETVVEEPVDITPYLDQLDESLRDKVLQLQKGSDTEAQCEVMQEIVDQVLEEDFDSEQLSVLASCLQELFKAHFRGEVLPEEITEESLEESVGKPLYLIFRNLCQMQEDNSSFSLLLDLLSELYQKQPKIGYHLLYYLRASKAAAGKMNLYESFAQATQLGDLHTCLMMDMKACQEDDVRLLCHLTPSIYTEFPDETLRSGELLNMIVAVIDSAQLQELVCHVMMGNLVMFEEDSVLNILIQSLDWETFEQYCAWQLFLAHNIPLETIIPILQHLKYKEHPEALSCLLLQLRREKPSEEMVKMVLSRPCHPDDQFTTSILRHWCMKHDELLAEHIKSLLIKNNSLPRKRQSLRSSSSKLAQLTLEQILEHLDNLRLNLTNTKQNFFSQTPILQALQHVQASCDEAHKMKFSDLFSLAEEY

| Sequence | binding result [1, 4] | binding result [2, 4] | binding result ([1]; 0-25 uM) | binding result ([2]; 0-25 uM) | binding result [3] |
| --- | --- | --- | --- | --- | --- |
| TTTTTTTTTTTTTTTTTTTTTTTTTTTTTT [dT30] | binds more weakly | binds more weakly |  |  |  |
| UUUUUUUUUUUUUUUUUUUUUUUUUUUUUU [rU30] |  |  | binds more weakly | binds more weakly | binds more weakly |

From paper PMC7948952, “Structural basis for multifunctional roles of human Ints3 C-terminal domain” (The Journal of Biological Chemistry, 2020)
